Test results taken from article PMC8699254.

By UniProt entry, the sequences of proteins in these tests, tags left out.
UniProt Q6ZS72: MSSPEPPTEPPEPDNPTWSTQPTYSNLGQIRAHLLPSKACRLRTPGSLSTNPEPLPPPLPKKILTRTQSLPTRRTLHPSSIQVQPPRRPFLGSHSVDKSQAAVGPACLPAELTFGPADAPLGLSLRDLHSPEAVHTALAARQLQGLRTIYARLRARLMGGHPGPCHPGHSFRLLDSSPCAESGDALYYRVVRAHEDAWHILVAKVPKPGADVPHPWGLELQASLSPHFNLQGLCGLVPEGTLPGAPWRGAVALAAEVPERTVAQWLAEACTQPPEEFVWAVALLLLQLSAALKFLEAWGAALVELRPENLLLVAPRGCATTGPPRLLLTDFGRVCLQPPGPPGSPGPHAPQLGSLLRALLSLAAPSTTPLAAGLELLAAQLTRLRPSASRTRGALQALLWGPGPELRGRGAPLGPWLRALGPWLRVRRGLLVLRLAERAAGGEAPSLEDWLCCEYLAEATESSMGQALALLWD
UniProt O43150: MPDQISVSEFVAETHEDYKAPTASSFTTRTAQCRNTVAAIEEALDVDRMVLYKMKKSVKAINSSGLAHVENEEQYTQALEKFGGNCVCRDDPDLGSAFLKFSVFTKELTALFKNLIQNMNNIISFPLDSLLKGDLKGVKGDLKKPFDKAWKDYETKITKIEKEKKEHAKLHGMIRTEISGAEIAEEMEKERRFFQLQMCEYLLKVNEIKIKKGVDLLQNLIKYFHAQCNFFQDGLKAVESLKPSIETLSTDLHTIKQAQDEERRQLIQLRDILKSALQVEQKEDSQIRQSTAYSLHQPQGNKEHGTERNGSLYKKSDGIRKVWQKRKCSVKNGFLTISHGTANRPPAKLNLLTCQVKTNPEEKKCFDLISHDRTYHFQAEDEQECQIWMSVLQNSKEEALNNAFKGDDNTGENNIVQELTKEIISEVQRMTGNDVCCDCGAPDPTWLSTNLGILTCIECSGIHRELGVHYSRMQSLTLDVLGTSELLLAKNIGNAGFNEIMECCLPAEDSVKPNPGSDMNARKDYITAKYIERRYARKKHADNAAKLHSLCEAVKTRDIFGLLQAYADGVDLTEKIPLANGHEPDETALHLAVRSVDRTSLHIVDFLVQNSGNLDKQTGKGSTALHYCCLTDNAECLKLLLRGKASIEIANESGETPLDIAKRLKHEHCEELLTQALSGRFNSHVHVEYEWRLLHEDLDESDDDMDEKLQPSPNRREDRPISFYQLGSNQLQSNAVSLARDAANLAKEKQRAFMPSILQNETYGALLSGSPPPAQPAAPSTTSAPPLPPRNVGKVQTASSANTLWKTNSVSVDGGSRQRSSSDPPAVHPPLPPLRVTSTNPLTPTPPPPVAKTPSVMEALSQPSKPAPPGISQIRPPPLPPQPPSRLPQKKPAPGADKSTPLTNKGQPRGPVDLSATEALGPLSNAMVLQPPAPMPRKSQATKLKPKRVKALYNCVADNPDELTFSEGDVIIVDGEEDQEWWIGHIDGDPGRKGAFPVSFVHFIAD
UniProt Q14289: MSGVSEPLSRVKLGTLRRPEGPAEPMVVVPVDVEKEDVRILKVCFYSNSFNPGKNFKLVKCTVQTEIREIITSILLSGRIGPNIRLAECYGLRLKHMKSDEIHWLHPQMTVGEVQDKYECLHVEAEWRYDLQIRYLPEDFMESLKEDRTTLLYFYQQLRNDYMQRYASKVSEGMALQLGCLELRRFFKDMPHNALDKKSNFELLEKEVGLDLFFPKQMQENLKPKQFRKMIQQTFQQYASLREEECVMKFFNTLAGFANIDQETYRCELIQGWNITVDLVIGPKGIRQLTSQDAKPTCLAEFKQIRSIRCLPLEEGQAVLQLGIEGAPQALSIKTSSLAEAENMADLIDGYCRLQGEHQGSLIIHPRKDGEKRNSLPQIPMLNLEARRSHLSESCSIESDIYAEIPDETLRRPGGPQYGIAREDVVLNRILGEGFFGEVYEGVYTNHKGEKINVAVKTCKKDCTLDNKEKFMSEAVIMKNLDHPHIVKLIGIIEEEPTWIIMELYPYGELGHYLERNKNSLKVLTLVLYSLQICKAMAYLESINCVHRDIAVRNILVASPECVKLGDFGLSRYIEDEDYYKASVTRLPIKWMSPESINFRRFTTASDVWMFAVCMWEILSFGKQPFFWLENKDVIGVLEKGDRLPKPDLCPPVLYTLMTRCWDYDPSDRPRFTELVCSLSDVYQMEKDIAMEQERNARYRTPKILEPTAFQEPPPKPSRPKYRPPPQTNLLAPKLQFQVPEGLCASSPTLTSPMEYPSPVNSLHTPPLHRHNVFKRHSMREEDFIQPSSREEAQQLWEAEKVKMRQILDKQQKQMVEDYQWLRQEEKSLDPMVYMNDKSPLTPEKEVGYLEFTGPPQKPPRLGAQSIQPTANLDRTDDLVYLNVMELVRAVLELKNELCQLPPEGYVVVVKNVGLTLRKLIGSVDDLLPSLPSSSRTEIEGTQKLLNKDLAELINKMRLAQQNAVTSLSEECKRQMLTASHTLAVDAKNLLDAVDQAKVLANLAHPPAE
UniProt P21796: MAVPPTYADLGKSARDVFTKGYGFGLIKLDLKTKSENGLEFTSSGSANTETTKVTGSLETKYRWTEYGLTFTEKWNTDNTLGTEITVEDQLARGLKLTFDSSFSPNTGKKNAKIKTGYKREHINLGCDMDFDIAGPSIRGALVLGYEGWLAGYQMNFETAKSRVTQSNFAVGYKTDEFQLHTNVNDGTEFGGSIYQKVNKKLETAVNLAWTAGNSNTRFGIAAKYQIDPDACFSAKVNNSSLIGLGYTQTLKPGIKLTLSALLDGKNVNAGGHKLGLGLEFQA
UniProt Q9H792: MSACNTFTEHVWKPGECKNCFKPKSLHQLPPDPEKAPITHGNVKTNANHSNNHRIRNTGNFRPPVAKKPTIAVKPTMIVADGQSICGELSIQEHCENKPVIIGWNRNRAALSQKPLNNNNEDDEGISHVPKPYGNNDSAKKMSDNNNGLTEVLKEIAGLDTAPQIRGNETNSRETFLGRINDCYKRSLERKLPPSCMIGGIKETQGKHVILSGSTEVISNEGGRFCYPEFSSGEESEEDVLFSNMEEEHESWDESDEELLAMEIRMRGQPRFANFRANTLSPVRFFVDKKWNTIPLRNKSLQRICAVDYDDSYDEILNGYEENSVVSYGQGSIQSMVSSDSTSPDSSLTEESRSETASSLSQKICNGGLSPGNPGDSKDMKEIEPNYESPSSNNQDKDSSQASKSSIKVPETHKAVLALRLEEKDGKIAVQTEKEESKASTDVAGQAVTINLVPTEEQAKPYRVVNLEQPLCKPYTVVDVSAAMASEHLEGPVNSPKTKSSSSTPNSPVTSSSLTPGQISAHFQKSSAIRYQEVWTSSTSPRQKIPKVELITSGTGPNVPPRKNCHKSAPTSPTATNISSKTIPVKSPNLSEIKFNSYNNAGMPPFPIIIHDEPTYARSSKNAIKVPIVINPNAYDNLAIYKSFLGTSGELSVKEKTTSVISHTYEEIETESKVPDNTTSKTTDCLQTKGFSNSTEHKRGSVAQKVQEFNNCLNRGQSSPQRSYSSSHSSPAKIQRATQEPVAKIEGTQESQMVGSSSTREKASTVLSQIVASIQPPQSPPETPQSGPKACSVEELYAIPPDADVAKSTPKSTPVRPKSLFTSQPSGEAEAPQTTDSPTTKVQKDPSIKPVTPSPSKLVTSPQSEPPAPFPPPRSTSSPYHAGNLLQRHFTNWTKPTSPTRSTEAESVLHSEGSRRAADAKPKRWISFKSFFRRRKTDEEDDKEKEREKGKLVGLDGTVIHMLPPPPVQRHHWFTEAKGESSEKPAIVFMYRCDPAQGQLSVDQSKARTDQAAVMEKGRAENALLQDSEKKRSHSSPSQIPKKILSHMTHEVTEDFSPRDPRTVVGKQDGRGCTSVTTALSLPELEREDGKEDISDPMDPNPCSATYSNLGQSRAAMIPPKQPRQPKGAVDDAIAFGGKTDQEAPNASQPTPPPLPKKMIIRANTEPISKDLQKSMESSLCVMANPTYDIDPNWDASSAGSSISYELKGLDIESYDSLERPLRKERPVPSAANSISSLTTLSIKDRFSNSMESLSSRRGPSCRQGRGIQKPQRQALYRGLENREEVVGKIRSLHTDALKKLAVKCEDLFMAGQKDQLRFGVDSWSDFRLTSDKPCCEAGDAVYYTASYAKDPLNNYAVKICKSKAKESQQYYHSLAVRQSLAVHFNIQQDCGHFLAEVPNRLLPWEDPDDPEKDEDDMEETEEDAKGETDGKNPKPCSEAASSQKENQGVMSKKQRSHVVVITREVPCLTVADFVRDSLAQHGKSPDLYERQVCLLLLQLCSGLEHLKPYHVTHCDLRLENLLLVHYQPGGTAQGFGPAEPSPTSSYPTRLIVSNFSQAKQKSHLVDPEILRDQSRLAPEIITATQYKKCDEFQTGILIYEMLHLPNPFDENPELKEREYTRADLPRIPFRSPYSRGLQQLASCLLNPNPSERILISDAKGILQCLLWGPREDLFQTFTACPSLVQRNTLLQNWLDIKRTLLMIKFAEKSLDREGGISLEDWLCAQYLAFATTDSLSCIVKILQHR

Molecular target: Strep-tagged PEAK3 (ST-PEAK3), wild type (human) (UniProt Q6ZS72)

Row | binding | Substance
1 | binds | ADP-ribosylation factor (ARF) GTPase-activating protein ASAP2 (from UniProt O43150 1-1006)
2 | binds | FAK-like tyrosine kinase PYK2 (endogenous) (from UniProt Q14289 1-1009) (enzyme)
3 | binds | voltage-dependent anion-selective channel protein VDAC1 (from UniProt P21796 1-283)
4 | binds | PEAK1 (from UniProt Q9H792 1-1746)

Results are given in words; binding and its absence hold for the method and conditions named. Binding seen in cells or lysates may run through a third protein. These calls come from enrichment with a bait or labelling near it, and not all partners need be listed.
